# Source: PubChem BioAssay AID1347075 (National Center for Advancing Translational Sciences (NCATS), 2019)
# The campaign covered roughly 400,000 compounds. About 5,500 (1.4%) were called active. This list was built around the results that the source calls inconclusive (neither active nor inactive); the mix of calls is not that of the screen. Calls follow the shape of the dose curve; as a rule, active = well fitted cell-killing curve with a large enough effect; inconclusive = small, poorly fitted or top-dose-only effect, or effect the other way; inactive = flat fitted curve, though single readings scatter. Where the call is inconclusive, the potency comes from a doubtful curve fit.
# Experiment: qHTS assay for MDR1-selective chemotherapeutics: Primary screen using the parental adenocarcinoma cell KB-3-1; also: nearly all actives have a fitted effect of over 60% in size
# Settings: KB-3-1 viability, CellTiter-Glo ATP luminescence, 72 h; activity change, negative = cytotoxic: at 46.1 µM (top of the series)
# In short: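 Luminescent ATP read-out (CellTiter-Glo) measures survival of drug-naive KB-3-1 cells after 72 h compound exposure at 37 °C. Titration series was screened from lowest to highest concentration, with DMSO vehicle plates as background controls.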
# % is scaled to controls: 0 for no effect and ±100 for the full control effect; potency is read from the fitted curve at half-maximal effect.
SMILES,"activity change, negative = cytotoxic",Potency
Cc1ccc(N=C2C(=O)Nc3c(C)cccc32)cc1,inactive: 3.59%,–
CCOC(=O)c1cnc(SCc2nc(N)nc(Nc3ccc(C)cc3)n2)nc1N,–,"inconclusive: 29.1 µM [cytotoxic, single point]"
CCC(=O)c1ccc(Oc2ccc(C(=O)c3ccc(C)cc3)cc2[N+](=O)[O-])cc1,inactive: -7.48%,–
O=C(N/N=C/c1ccccc1C(F)(F)F)c1ccc2nc[nH]c2c1,–,"inconclusive: 3.66 µM [rising, full curve, poor fit]"
O=C(Nc1cccc(F)c1)N1CCc2nc(NCc3cccc(Oc4ccccc4)c3)ncc2C1,–,"inconclusive: 20.6 µM [cytotoxic, single point]"
O=C(Nc1ccc(Cl)cc1Cl)[C@@H]1CC=C[C@@H]2CCN(C3CC3)C(=O)[C@@H]21,inactive: 1.18%,–
CCC(=NCCc1c(C)[nH]c2ccc(C)cc12)C1=C(O)CC(c2ccccc2)CC1=O (stereo not given),–,active: 0.731 µM
COc1ccc(OC)c(Nc2ncnc3c2cnn3-c2cccc(C)c2)c1,–,"inconclusive: 18.4 µM [cytotoxic, single point]"
CCN(CC)C(=O)CSc1nc2ccccc2c(=O)n1CCC(=O)NCCc1ccc(OC)c(OC)c1,–,"inconclusive: 32.6 µM [cytotoxic, single point]"
O=C(C1=C[C@H](c2ccccc2)C[C@H](OCc2ccc(CO)cc2)O1)N1CCN(Cc2ccc3c(c2)OCO3)CC1,–,"inconclusive: 29.1 µM [cytotoxic, single point]"
COC(=O)c1c(-c2ccc(OC)cc2)sc2ccc(N3CCOCC3)cc12,–,active: 14.6 µM
Cc1ccc2c(CC(=O)NNC(=O)c3ccccc3O)coc2c1,–,"inconclusive: 29.1 µM [cytotoxic, single point]"
O=C1[C@H](Cc2ccccc2)NCCCC[C@H](c2ccc(Cl)cc2)N1Cc1ccc(Cl)cc1,–,"inconclusive: 29.1 µM [cytotoxic, single point]"
Cc1cc(C)cc(N2C(=O)CSC23C(=O)N(CC(=O)NC2CCCCC2)c2ccccc23)c1 (stereo not given),–,"inconclusive: 29.1 µM [cytotoxic, partial curve, poor fit]"
COc1ccccc1NC(=S)N/N=C1\CC(C)(C)Oc2ccc(O)cc21,–,"inconclusive: 32.6 µM [cytotoxic, single point]"
CCS(=O)(=O)Nc1ccc(C2=NN(C(C)=O)C(c3cccs3)C2)cc1 (stereo not given),–,"inconclusive: 11.6 µM [cytotoxic, partial curve]"
Cc1cc(N(CCO)CCO)ccc1C(c1ccc(N(CCO)CCO)cc1C)c1ccccc1Cl,–,"inconclusive: 23.1 µM [cytotoxic, single point]"
Nc1ccc(C(=O)OCc2nc3cc4ccccc4cc3[nH]2)cc1,–,"inconclusive: 2.06 µM [cytotoxic, full curve]"
Cc1cc(C)nc(SCCn2c(N3CCOCC3)nc3c2c(=O)[nH]c(=O)n3C)n1,inactive: -3.91%,–
COc1ccccc1NC(=O)CN1CCN(CC(=O)Nc2ccc(F)cc2)CC1,inactive: 1.38%,–

SMILES,"activity change, negative = cytotoxic",Potency
c1ccc([C@H]2CN3C(=N2)Sc2ccccc23)cc1,inactive: -7.96%,–
Cc1ccc(-n2nc3c(=O)n(CC(=O)NCCc4cccs4)nc(C)c3c2C)cc1,–,"inconclusive: 18.4 µM [cytotoxic, single point]"
COc1ccc(CCN(C)C(=O)c2cccc(S(=O)(=O)N3CCN(c4ccc(F)cc4)CC3)c2)cc1OC,–,"inconclusive: 5.8 µM [cytotoxic, partial curve, poor fit]"
Cc1[nH]c2ccccc2c1C(=O)CSc1n[nH]c(N)n1,–,"inconclusive: 23.1 µM [rising, single point]"
COc1ccc(S(=O)(=O)N2CC(C)N(C(=O)N3CCOCC3)C2)cc1 (stereo not given),inactive: -4.26%,–
N#CCc1ccc(OCCCN2CCC(C(O)(c3ccccc3)c3ccccc3)CC2)cc1,–,"inconclusive: 25.9 µM [cytotoxic, single point]"
COc1ccc(N2CCN(C(CNC(=O)CC(C)(C)C)c3ccc4c(c3)OCO4)CC2)cc1 (stereo not given),–,"inconclusive: 0.517 µM [cytotoxic, partial curve, poor fit]"
O=C1c2ccccc2C2N1CCCN2C(=O)c1sc2ccccc2c1Cl (stereo not given),–,"inconclusive: 29.1 µM [cytotoxic, single point]"
CCCN1CCN(C(=O)C2CCN(S(=O)(=O)c3c(C)noc3/C=C/c3ccc(C)cc3)CC2)CC1,–,active: 25.9 µM
O=C(Nc1nc(-c2ccccc2)cs1)C1CCCCN1S(=O)(=O)c1ccc(Cl)cc1 (stereo not given),–,"inconclusive: 29.1 µM [cytotoxic, single point]"
COc1ccc(-n2nc(C(=O)NCC(=O)N3CCN(Cc4ccc5c(c4)OCO5)CC3)c3ccccc3c2=O)cc1OC,–,"inconclusive: 8.2 µM [rising, partial curve]"
Cn1cc(-c2cc3n(n2)CCC(=O)N3CCCC(=O)NCc2ccc(F)cc2)c2ccccc21,–,"inconclusive: 16.4 µM [cytotoxic, single point]"
CCN1C(=O)CCN(C2CCCC2)c2nc(Nc3ccc(C(=O)NC4CCN(C)CC4)cc3OC)ncc21,–,active: 9.2 µM
Cc1cc(=O)oc2cc(O[C@@H]3O[C@H](CO)[C@H](O)[C@H](O)[C@H]3O)ccc12,inactive: -4.98%,–
Cc1ccc(NC(=O)c2cc3ccccc3o2)cc1Cl,–,"inconclusive: 18.4 µM [cytotoxic, single point]"
CCN1C(=O)C(C(=O)c2ccccc2)SC1=S (stereo not given),–,"inconclusive: 29.1 µM [cytotoxic, single point]"
Cc1cc(F)ccc1S(=O)(=O)N1CCCOC1CNC(=O)C(=O)NCCc1c[nH]c2ccccc12 (stereo not given),–,"inconclusive: 29.1 µM [cytotoxic, single point]"
CCn1c(SCC(=O)Nc2cc3oc4ccccc4c3cc2OC)nnc1-c1cccs1,inconclusive: 6.28%,–
CCN(CC)C(=O)C1=C(C)N(CCC2=CCCCC2)C(=O)C(CC(=O)NCc2cccc3ccccc23)C1 (stereo not given),–,"inconclusive: 25.9 µM [cytotoxic, single point]"
O=S(=O)(c1ccccc1)N1CCC(O)(CSc2ccc(Cl)cc2)CC1,–,"inconclusive: 29.1 µM [cytotoxic, partial curve, poor fit]"

# Arranged by number of heavy atoms (descending): 3 of the compounds above.
SMILES,"activity change, negative = cytotoxic",Potency
CCCN1CCN(C(=O)C2CCN(S(=O)(=O)c3c(C)noc3/C=C/c3ccc(C)cc3)CC2)CC1,–,active: 25.9 µM
N#CCc1ccc(OCCCN2CCC(C(O)(c3ccccc3)c3ccccc3)CC2)cc1,–,"inconclusive: 25.9 µM [cytotoxic, single point]"
Cc1cc(C)nc(SCCn2c(N3CCOCC3)nc3c2c(=O)[nH]c(=O)n3C)n1,inactive: -3.91%,–
